Results are given in words; binding and its absence hold for the method and conditions named. Binding seen in cells or lysates may run through a third protein. Some entries that bind do so weakly or less than the wild type.

By UniProt entry, the sequences of proteins in these tests, tags left out. Where a name states a change or a piece, a line headed by the entry shows the natural chain unless it says otherwise.
UniProt Q13485: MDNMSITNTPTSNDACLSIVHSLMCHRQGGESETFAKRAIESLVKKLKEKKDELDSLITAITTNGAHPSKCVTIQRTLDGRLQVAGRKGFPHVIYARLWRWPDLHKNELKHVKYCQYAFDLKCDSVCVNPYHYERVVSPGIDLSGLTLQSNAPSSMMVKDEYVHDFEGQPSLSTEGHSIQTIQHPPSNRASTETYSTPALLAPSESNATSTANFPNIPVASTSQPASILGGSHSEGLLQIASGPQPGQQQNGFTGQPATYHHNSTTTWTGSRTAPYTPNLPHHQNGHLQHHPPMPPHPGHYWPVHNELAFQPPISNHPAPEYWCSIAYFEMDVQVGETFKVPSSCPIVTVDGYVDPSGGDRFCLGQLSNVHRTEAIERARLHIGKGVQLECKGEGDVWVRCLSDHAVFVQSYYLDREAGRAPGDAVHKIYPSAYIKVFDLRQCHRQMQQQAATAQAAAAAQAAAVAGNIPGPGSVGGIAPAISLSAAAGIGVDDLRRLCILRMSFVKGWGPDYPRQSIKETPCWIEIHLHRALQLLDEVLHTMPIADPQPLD
UniProt P49841: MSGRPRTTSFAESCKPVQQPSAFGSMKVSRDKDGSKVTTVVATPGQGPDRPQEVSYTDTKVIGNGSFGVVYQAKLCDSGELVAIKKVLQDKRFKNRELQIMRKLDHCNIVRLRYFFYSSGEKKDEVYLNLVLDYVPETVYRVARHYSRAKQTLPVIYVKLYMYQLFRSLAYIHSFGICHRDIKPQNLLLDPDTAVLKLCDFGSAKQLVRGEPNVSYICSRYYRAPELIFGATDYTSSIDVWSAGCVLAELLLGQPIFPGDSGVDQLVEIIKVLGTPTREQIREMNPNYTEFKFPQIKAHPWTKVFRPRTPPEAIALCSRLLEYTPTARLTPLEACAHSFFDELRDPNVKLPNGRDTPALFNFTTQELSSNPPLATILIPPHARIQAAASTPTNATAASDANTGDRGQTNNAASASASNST
UniProt Q9Y297: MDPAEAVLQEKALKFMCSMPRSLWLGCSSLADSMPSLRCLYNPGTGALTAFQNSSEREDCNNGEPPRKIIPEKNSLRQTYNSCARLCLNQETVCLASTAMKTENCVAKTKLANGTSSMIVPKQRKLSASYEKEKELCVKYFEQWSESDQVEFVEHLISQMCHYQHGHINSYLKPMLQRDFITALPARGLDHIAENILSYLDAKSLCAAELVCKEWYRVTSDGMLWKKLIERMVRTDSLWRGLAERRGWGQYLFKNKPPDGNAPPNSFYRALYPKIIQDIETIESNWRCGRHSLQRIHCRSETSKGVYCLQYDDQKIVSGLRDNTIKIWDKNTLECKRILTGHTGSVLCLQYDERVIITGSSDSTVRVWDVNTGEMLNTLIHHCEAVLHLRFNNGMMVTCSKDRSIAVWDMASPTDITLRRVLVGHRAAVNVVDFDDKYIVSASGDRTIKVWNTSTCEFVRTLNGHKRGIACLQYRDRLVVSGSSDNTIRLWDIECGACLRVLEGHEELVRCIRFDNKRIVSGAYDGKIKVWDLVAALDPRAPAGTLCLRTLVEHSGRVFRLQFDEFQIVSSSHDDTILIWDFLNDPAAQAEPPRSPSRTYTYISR

Experiment [1] deals with FLAG-SMAD4 WT (UniProt Q13485). As to the kind of experiment: co-IP; HEK293 cells transfected with FLAG-SMAD4 24 h; immunoprecipitation with anti-FLAG, endogenous GSK-3β detected with anti-GSK-3β; without OGT overexpression.
Experiment [2] has as its target FLAG-SMAD4 WT (UniProt Q13485). As to the kind of experiment: co-IP; HEK293 cells co-transfected with FLAG-SMAD4 and pCMV-OGT 24 h (OGT overexpressed); immunoprecipitation with anti-FLAG, endogenous GSK-3β detected with anti-GSK-3β.
Experiment [3] addresses endogenous GSK-3β (A549) (human (endogenous in A549)) (UniProt P49841). Put plainly: co-IP; A549 cells, siRNA against OGT 48 h, 20 µM MG132 6 h before harvest; immunoprecipitation with anti-GSK-3β, endogenous SMAD4 detected with anti-SMAD4.
Experiment [4] addresses FLAG-SMAD4 T63V (UniProt Q13485). As to the kind of experiment: co-IP; HEK293 cells expressing FLAG-SMAD4 T63V and myc-β-TrCP, 24 h after transfection; precipitates blotted with anti-myc.
For experiment [5] the target is unchanged. As to the kind of experiment: co-IP; HEK293 cells co-transfected 24 h; whole lysates (NET buffer: 150 mM NaCl, 50 mM Tris, 1 mM EDTA, 1% Nonidet P-40, pH 7.4) immunoprecipitated with anti-FLAG overnight at 4 °C, blotted with anti-HA; with or without pCMV-OGT or myc-His-OGA overexpression.
Experiment [6] concerns the target FLAG-SMAD4 WT (UniProt Q13485). The description is as above.
The target of the next experiment is HA-GSK-3β (UniProt P49841). As to the kind of experiment: co-IP; HEK293 cells co-transfected 24 h; whole lysates immunoprecipitated with anti-HA, FLAG-SMAD4 detected in the precipitates; with or without pCMV-OGT overexpression.

With “endogenous GSK-3β (HEK293) (from UniProt P49841 1-420) (enzyme)”, the binding entry in the experiment with FLAG-SMAD4 WT [1] was “binds”; with FLAG-SMAD4 WT [2], “binds weakly”.

As to “endogenous SMAD4 (A549) (from UniProt Q13485 1-552)”, in experiment [3], the binding entry is “binds”.

As for myc-β-TrCP (from UniProt Q9Y297 1-605), in the experiment with FLAG-SMAD4 T63V [4], the binding result is “binds”.

With “HA-GSK-3β (from UniProt P49841 1-420) (enzyme)”, the binding entry with FLAG-SMAD4 T63V [5] and in the experiment with FLAG-SMAD4 WT [6] was “binds” in each case.

Take “FLAG-SMAD4 WT (from UniProt Q13485 1-552)”: the binding entry with HA-GSK-3β was “binds”.

For the origin of these results see article PMC7670456.
